Measurements from PubChem BioAssay AID485298 (National Center for Advancing Translational Sciences (NCATS), 2010).
In all, about 320,000 compounds went through this assay and about 740 (0.23%) were called active. Inconclusive means that the source gave no clear call. Such entries were picked first, then a sample of the others. The call rests on the fitted dose curve; in most records, active means well fitted activation curve with a large enough effect; inconclusive means small, poorly fitted or top-dose-only effect; inactive means no such curve, though single readings can be large or run the other way. Potencies of inconclusive entries are doubtful fits and often do not repeat. Where a SMILES comes first, the peptide text is derived from it. The star is where a group is joined. Cbz = O=C(OCc1ccccc1)*

Test: qHTS Assay for Small Molecule Inhibitors of Mitochondrial Division or Activators of Mitochondrial Fusion; further: nearly all actives have a fitted effect of over 45% in size;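 on growth rescue (activation): temperature-sensitive fusion mutants such as fzo1-1 at 37 °C on non-fermentable ethanol glycerol medium; % of control where 0% means no effect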
Settings: S. cerevisiae fusion-defective mutant growth rescue, CellTiterGlo 48 h; growth rescue (activation): at 46.1 µM (top of the series) unless noted
In short: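 Compounds are tested for their ability to restore growth of mitochondrial fusion-defective yeast strains at non-permissive 37C in YPEG medium over 48 hours. Viability is quantified by luciferase luminescence.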
Potency means the concentration at half of the fitted maximal effect.

SMILES | Potency | growth rescue (activation)
CCOC(=O)N1CCN(Cc2nnc(-c3ccccc3C)o2)CC1 | inconclusive: 11.2 µM [activator, partial curve] | 
O=C(NCc1ccccc1Cl)c1ccccc1Oc1ccccc1 | inconclusive: 20 µM [activator, single point] | 
NC(=S)c1ccc[n+]([C@@H]2O[C@@H](COP(=O)([O-])OP(=O)(O)OC[C@H]3O[C@@H](n4cnc5c(N)ncnc54)[C@H](OP(=O)(O)O)[C@@H]3O)C(O)C2O)c1 (some centres not stated) | inconclusive: 20.6 µM [activator, single point] | 
O=C(Nc1nnc(-c2ccccn2)o1)c1cccc(Br)c1 | inconclusive: 11.2 µM [activator, partial curve] | 
COc1ccc(C)cc1NC(=O)CN1CCCN(S(=O)(=O)c2ccc(Br)cc2)CC1 | active: 14.1 µM | 
O=C(c1ccccc1F)N1CCN(c2ccc([N+](=O)[O-])cc2-n2cccc2)CC1 | inconclusive: 12.6 µM [activator, partial curve] | 
CC(C)[C@H](NC(=O)OCc1ccccc1)C(=O)N[C@H](C=O)Cc1ccccc1 (Cbz-Val-Phe-aldehyde) | inconclusive: 20.6 µM [activator, single point] | 
CCCCNC(=S)N1CCN(C(c2ccccc2)c2ccccc2)CC1 | inconclusive: 3.16 µM [activator, partial curve] | 
CC(=O)C1=C(C)NC(SCC(=O)c2ccccc2)=C(C#N)C1c1ccco1 (configuration not stated) | inconclusive: 14.1 µM [activator, partial curve] | 
Cc1ccnc(NC(=O)CN2C(=O)c3ccccc3C2=O)c1 | inconclusive: 20 µM [activator, single point] | 
CC(C)(C)CC(C)(C)NC(=S)NC1CCN(Cc2ccccc2)CC1 |  | inactive: 7.69%
O=C(Nc1cccn(Cc2c(Cl)cccc2Cl)c1=O)C1CC1 |  | inactive: -0.0184%
Cc1ccc(Nc2ccc(C(=O)O)cc2[N+](=O)[O-])cc1 | inconclusive: 35.5 µM [activator, single point] | 
COc1cccc(COc2ccc3ccc(=O)oc3c2)c1 | inconclusive: 35.5 µM [activator, single point] | 
CC(C)c1cccc(C2=CC(=O)C[C@H](c3ccc4c(c3)OCO4)C2)c1 | inconclusive: 28.2 µM [activator, partial curve] | 
CN(c1ccccc1)S(=O)(=O)c1cccc(NC(=O)c2ccc(=O)[nH]c2)c1 |  | inactive: -9.77%
CN(C)CCCc1cc(C(=O)Nc2ccc(-c3ccncc3)cc2)ccc1O | inconclusive: 29.1 µM [activator, single point] | 
CCC1=C(OC(=O)N(CC)CC)N2C(=O)OC(=NCC(=O)OC)[C@]2(Cc2ccccc2)[C@H]2C1=CC[C@H]1C(=O)NC(=O)[C@H]12 | inconclusive: 17.8 µM [activator, single point] | 
CCOC(=O)C1CCN(c2c([N+](=O)[O-])c(C(Cl)Cl)nn2-c2ccccc2)CC1 | inconclusive: 11.2 µM [activator, partial curve] | 
Cc1ccc2c(c1)/C(=N/N1C(=O)c3ccccc3C1=O)C(=O)N2 |  | inactive: 0.41%
COc1cccc(NC(=O)c2ccccc2-c2nc(-c3ccc(F)cc3)no2)c1 | inconclusive: 31.6 µM [activator, single point] | 
COC(=O)c1sc(NC(=O)c2ccc(Cn3cc(Cl)cn3)o2)c(C#N)c1C | inconclusive: 12.6 µM [activator, partial curve] | 
CCc1nc(C)cn1S(=O)(=O)c1ccc([N+](=O)[O-])cc1 |  | inactive: 3.35%

SMILES | Potency | growth rescue (activation)
O=C(O)CCn1cc(C2CC(c3ccccc3)=NN2c2ccccc2)c(-c2ccccc2)n1 (configuration not stated) | inconclusive: 15.8 µM [activator, single point] | 
CCC(CC)C(=O)c1c[nH]c(C(=O)NCc2ccncc2)c1 | inconclusive: 3.55 µM [activator, single point] | 
S=C(NCCOCCOCCNC(=S)Nc1ccccc1)Nc1ccccc1 | inconclusive: 35.5 µM [activator, single point] | 
CCOC(=O)C1=C(C)N(c2ccc(Cl)cc2)C(=O)NC1c1cccc([N+](=O)[O-])c1 (configuration not stated) | inconclusive: 17.8 µM [activator, single point] | 
CC(=O)C1=C(C)Nc2ncnn2C1c1ccc(Cl)cc1Cl (configuration not stated) | inconclusive: 6.31 µM [activator, single point] | 
Cc1ccc(NC(=O)C(C)OC(=O)CCNS(=O)(=O)c2ccc(C)cc2)cc1 (configuration not stated) |  | inactive: -0.102%
C=CCN1CCc2cc(O)c(O)cc2C(c2ccccc2)C1 (configuration not stated) | inconclusive: 9.2 µM [activator, partial curve] | 
Cc1ccc(SCC(=O)Nc2cccc(-c3nnc(-c4ccco4)o3)c2)cc1 | inconclusive: 7.08 µM [activator, partial curve] | 
Cc1ccc(S(=O)(=O)N2CC(C)N(C(=O)N3CCOCC3)C2)cc1 (configuration not stated) | inconclusive: 35.5 µM [activator, single point] | 
O=C1CC(N2CCN(c3ccc(Cl)cc3)CC2)C(=O)N1c1ccc(F)cc1 (configuration not stated) |  | inactive: -4.99%
Cc1ccsc1C(=O)NCCC(c1ccccc1)c1ccccc1 | inconclusive: 11.2 µM [activator, partial curve] | 
COc1cccc(C2C(C#N)=C(C)NC3=C2C(=O)CC(C)(C)C3)c1 (configuration not stated) |  | inactive: 0.827%
Cc1cc(C2C(=O)c3ccccc3C2=O)c(C)c(C)c1C | inconclusive: 11.2 µM [activator, partial curve] | 
COc1ccccc1-c1oc2ccccc2c1-c1ccc2c(c1)OCO2 | inconclusive: 7.94 µM [activator, single point] | 
CCOC(=O)c1c(S(=O)(=O)NCCc2ccco2)c(C)n(C)c1C | inconclusive: 7.08 µM [activator, partial curve] | 
COc1ccc(C(=O)OCc2cc(=O)n3c(C)csc3n2)cc1F | inconclusive: 1.78 µM [activator, full curve, poor fit] | 
Cc1cccc(/C(N)=N/OC(=O)C23CC4CC(CC(C4)C2)C3)c1 | inconclusive: 3.98 µM [activator, single point] | 
COc1ccccc1Nc1nc(C)nc2c1oc1ccccc12 |  | inactive: -23.8%
CC(=O)OCC(=O)C1CCC2C3CC=C4CC(O)CCC4(C)C3CCC12C (configuration not stated) | active: 3.16 µM | 
O=C(COC(=O)c1ccc2c(c1)OCCO2)NCCC1=CCCCC1 | inconclusive: 35.5 µM [activator, single point] | 
CN1/C(=C\C(=O)COc2ccc3c(c2)OCO3)C(C)(C)c2ccccc21 | inconclusive: 15.8 µM [activator, single point] | 
COC(=O)c1ccc(C2C(C#N)=C(N)Oc3cc(O)ccc32)cc1 (configuration not stated) |  | inactive: 0.0851%
NS(=O)(=O)c1ccc(NC(=O)CSc2nc3ccccc3[nH]2)cc1 | inconclusive: 20 µM [activator, single point] | 

Record cards (already shown).
CCC(CC)C(=O)c1c[nH]c(C(=O)NCc2ccncc2)c1 as listed: Potency: inconclusive: 3.55 µM [activator, single point]
Cc1ccc(NC(=O)C(C)OC(=O)CCNS(=O)(=O)c2ccc(C)cc2)cc1 (configuration not stated) as listed: growth rescue (activation): inactive: -0.102%
COc1cccc(C2C(C#N)=C(C)NC3=C2C(=O)CC(C)(C)C3)c1 (configuration not stated) as listed: growth rescue (activation): inactive: 0.827%

Remaining list, next part.

SMILES | Potency | growth rescue (activation)
Cc1ccccc1C(=O)c1cccn1CC(=O)NCc1ccccc1Cl |  | inactive: -2.7%
CC(Sc1ncnc2sc(-c3ccccc3)cc12)C(=O)NCC1CCCO1 (configuration not stated) | inconclusive: 20 µM [activator, single point] | 
CC1(c2nnc(-c3ccccc3)o2)CC(c2ccc(F)cc2)=NO1 (configuration not stated) | inconclusive: 31.6 µM [activator, single point] | 
CC(C)C(c1nnnn1C1CCCCC1)N1CCN(C(=O)c2ccco2)CC1 (configuration not stated) | inconclusive: 12.6 µM [activator, partial curve] | 
CCc1c(C(=O)Nc2ccc(C)c(C)c2)[nH]c(C)c1C(C)=O | inconclusive: 12.6 µM [activator, partial curve] | 
CCNc1nc(C#N)nc2c1ncn2-c1cc(F)cc(F)c1 |  | inactive: 2.93%
Clc1ccc(C(c2ccccc2Cl)C(Cl)Cl)cc1 (configuration not stated) | inconclusive: 18.4 µM [activator, single point] | 
COc1ccc(C2=NOC(Cn3nc(C(=O)NCc4ccccc4OC)cc3-c3ccccc3)C2)cc1 (configuration not stated) | inconclusive: 20 µM [activator, single point] | 
Cc1ccccc1Nc1nc(N)nc(COC(=O)CC2CC3CCC2C3)n1 (configuration not stated) | inconclusive: 28.2 µM [activator, single point] | 
O=S(=O)(NC1c2cccc3cccc(c23)C1Sc1ncccn1)c1ccccc1 (configuration not stated) | inconclusive: 22.4 µM [activator, single point] | 
O=C(N/N=C/c1ccccc1[N+](=O)[O-])c1ccc(COc2ccccc2-c2ccccc2)cc1 | inconclusive: 25.1 µM [activator, single point] | 
Cc1cc(NC(=O)CSc2nnc(CNC(=O)c3c(F)cccc3F)o2)no1 |  | inactive: -1.82%
CCC(C)n1c(SCC(=O)Nc2ccccc2C(F)(F)F)nc2ccsc2c1=O (configuration not stated) | inconclusive: 12.6 µM [activator, partial curve] | 
COc1ccc(C(C)=O)cc1COc1ccc([N+](=O)[O-])c(C)c1 |  | inactive: 2.58%
N#C/C(=C/c1ccc(Sc2nc3ccccc3[nH]2)o1)c1cccc(F)c1 | inconclusive: 14.1 µM [activator, partial curve] | 
COc1cc2c(cc1NC(=O)c1cccc([N+](=O)[O-])c1)oc1ccccc12 |  | inactive: 1.1%
C/C(=N\N(Cc1ccccc1)c1ccccc1)c1ccncc1 |  | inactive: 0.905%
Cc1cc(-c2ccc(C)c(S(=O)(=O)NCc3ccc(Br)cc3)c2)on1 | inconclusive: 12.6 µM [activator, partial curve] | 
NC(=O)SCC(=O)Nc1ccc(Cl)c(Cl)c1 | inconclusive: 11.2 µM [activator, partial curve] | 
C=CCOc1cccc(C(=O)Nc2ncn[nH]2)c1 |  | inactive: 4.3%
C[C@H](NC(=O)c1nc[nH]c1C(=O)N1CCc2ccccc2C1)C(=O)OCc1ccccc1 | inconclusive: 15.8 µM [activator, partial curve] | 
